# PubChem BioAssay AID1508597 | Cure First | 2020
# Test: 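Survival screen with siRNA in ovarian cancer cells derived from patients, with or without rucaparib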 (primary screen)
# Cells: human ovarian carcinoma lines grown from tumours: OCI-P5x (papillary serous) and OCI-C5x (clear cell)
# Reagent: siRNA pool against human genes, 1.25 pmol siRNA per well
# Time to read-out: 72 h or 96 h, depending on the cell culture
# Challenge: rucaparib 20 µM (about IC30) or vehicle, present until read-out
# Measurement: 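Luminescent ATP-based viability assay read 72 or 96 h after transfection, depending on culture, given as normalised percent viability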
# Scale: viability, normalised: higher = more viable cells remaining
# Rule for the call: 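Active when normalised viability falls below 80 percent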
# Meaning of the calls: active = viability under 80%; inactive = viability 80% or more
# The whole screen tested about 2,100 reagents; below is an unselected part. 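Calls flag viability under 80% in either arm, not effects specific to rucaparib; the reference for percent is not stated.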 Entries without a mark were called inactive. No sequences are given here. The record does not give: the 100% reference.
"viability, normalised (%)",Gene,rucaparib or vehicle,cell line,technical replicate
54 (active),CSK (GeneID 1445),Rucaparib,OCI-C5x (clear cell),1
69.3 (active),CSK (GeneID 1445),Rucaparib,OCI-C5x (clear cell),2
51.3 (active),CSK (GeneID 1445),Rucaparib,OCI-C5x (clear cell),3
67 (active),CSK (GeneID 1445),Rucaparib,OCI-P5x (serous),1
37.1 (active),CSK (GeneID 1445),Rucaparib,OCI-P5x (serous),2
24.7 (active),CSK (GeneID 1445),Rucaparib,OCI-P5x (serous),3
54.2 (active),CSK (GeneID 1445),Vehicle,OCI-C5x (clear cell),1
53.3 (active),CSK (GeneID 1445),Vehicle,OCI-C5x (clear cell),2
40.3 (active),CSK (GeneID 1445),Vehicle,OCI-C5x (clear cell),3
67.8 (active),CSK (GeneID 1445),Vehicle,OCI-P5x (serous),1
77.6 (active),CSK (GeneID 1445),Vehicle,OCI-P5x (serous),2
74.9 (active),CSK (GeneID 1445),Vehicle,OCI-P5x (serous),3
49.6 (active),PFKM (GeneID 5213),Rucaparib,OCI-C5x (clear cell),1
60.4 (active),PFKM (GeneID 5213),Rucaparib,OCI-C5x (clear cell),2
54.1 (active),PFKM (GeneID 5213),Rucaparib,OCI-C5x (clear cell),3
137,PFKM (GeneID 5213),Rucaparib,OCI-P5x (serous),1
119,PFKM (GeneID 5213),Rucaparib,OCI-P5x (serous),2
125,PFKM (GeneID 5213),Rucaparib,OCI-P5x (serous),3
63.6 (active),PFKM (GeneID 5213),Vehicle,OCI-C5x (clear cell),1
48 (active),PFKM (GeneID 5213),Vehicle,OCI-C5x (clear cell),2
55.5 (active),PFKM (GeneID 5213),Vehicle,OCI-C5x (clear cell),3
94.9,PFKM (GeneID 5213),Vehicle,OCI-P5x (serous),1
103,PFKM (GeneID 5213),Vehicle,OCI-P5x (serous),2
105,PFKM (GeneID 5213),Vehicle,OCI-P5x (serous),3
51.1 (active),POU5F1B (GeneID 5462),Rucaparib,OCI-C5x (clear cell),1
79.1 (active),POU5F1B (GeneID 5462),Rucaparib,OCI-C5x (clear cell),2
55.8 (active),POU5F1B (GeneID 5462),Rucaparib,OCI-C5x (clear cell),3
64.9 (active),POU5F1B (GeneID 5462),Rucaparib,OCI-P5x (serous),1
57.5 (active),POU5F1B (GeneID 5462),Rucaparib,OCI-P5x (serous),2
65.8 (active),POU5F1B (GeneID 5462),Rucaparib,OCI-P5x (serous),3
55.5 (active),POU5F1B (GeneID 5462),Vehicle,OCI-C5x (clear cell),1
50.8 (active),POU5F1B (GeneID 5462),Vehicle,OCI-C5x (clear cell),2
47.6 (active),POU5F1B (GeneID 5462),Vehicle,OCI-C5x (clear cell),3
65.3 (active),POU5F1B (GeneID 5462),Vehicle,OCI-P5x (serous),1
57.5 (active),POU5F1B (GeneID 5462),Vehicle,OCI-P5x (serous),2
62.8 (active),POU5F1B (GeneID 5462),Vehicle,OCI-P5x (serous),3
48.5 (active),IRS2 (GeneID 8660),Rucaparib,OCI-C5x (clear cell),1
57.4 (active),IRS2 (GeneID 8660),Rucaparib,OCI-C5x (clear cell),2
62.5 (active),IRS2 (GeneID 8660),Rucaparib,OCI-C5x (clear cell),3
40.3 (active),IRS2 (GeneID 8660),Rucaparib,OCI-P5x (serous),1
44.4 (active),IRS2 (GeneID 8660),Rucaparib,OCI-P5x (serous),2
41.6 (active),IRS2 (GeneID 8660),Rucaparib,OCI-P5x (serous),3
80.2,IRS2 (GeneID 8660),Vehicle,OCI-C5x (clear cell),1
57 (active),IRS2 (GeneID 8660),Vehicle,OCI-C5x (clear cell),2
49 (active),IRS2 (GeneID 8660),Vehicle,OCI-C5x (clear cell),3
76.2 (active),IRS2 (GeneID 8660),Vehicle,OCI-P5x (serous),1
56.1 (active),IRS2 (GeneID 8660),Vehicle,OCI-P5x (serous),2
53.2 (active),IRS2 (GeneID 8660),Vehicle,OCI-P5x (serous),3
52.4 (active),EXO1 (GeneID 9156),Rucaparib,OCI-C5x (clear cell),1
40.8 (active),EXO1 (GeneID 9156),Rucaparib,OCI-C5x (clear cell),2
50.9 (active),EXO1 (GeneID 9156),Rucaparib,OCI-C5x (clear cell),3
64.2 (active),EXO1 (GeneID 9156),Rucaparib,OCI-P5x (serous),1
82.2,EXO1 (GeneID 9156),Rucaparib,OCI-P5x (serous),2
71.1 (active),EXO1 (GeneID 9156),Rucaparib,OCI-P5x (serous),3
58.4 (active),EXO1 (GeneID 9156),Vehicle,OCI-C5x (clear cell),1
58.2 (active),EXO1 (GeneID 9156),Vehicle,OCI-C5x (clear cell),2
47.6 (active),EXO1 (GeneID 9156),Vehicle,OCI-C5x (clear cell),3
72.4 (active),EXO1 (GeneID 9156),Vehicle,OCI-P5x (serous),1
70.9 (active),EXO1 (GeneID 9156),Vehicle,OCI-P5x (serous),2
56.8 (active),EXO1 (GeneID 9156),Vehicle,OCI-P5x (serous),3
